# Experimental data from patent US20180099046A1.
# Results are given in words; binding and its absence hold for the method and conditions named. A result given as binding can be weak or reduced; the word gives no strength.
# B1: humanized antibody Ab-5 (antibody, human IgG4 S228P, kappa, V domains shown)
# VH: EVQLVQSGAEVKKPGASVKVSCKASGYTFTDYNLDWLRQAPGEGLEWIGDIDPNDGDILYNQKFRDRVTMTTDTSTSTAYMELRSLRSDDTAVYYCARRWAYYFDYWGQGTTVTVSS
# VL: DIVMTQSPSSLSASVGDRVTITCKASQSVSNDVAWYQQKPGKSPKLLIYYTSNRFTGVPDRFSGSGSGTDFTLTISSLQPEDFATYFCQQDYSSPVTFGGGTKVEIKR
# Target: cynomolgus monkey sclerostin with a Flag tag (cyno-SOST-Flag) (cynomolgus monkey)
# Experiment: SPR (Biacore)
binder,measurement,value
B1,binding,binds
